As a reminder, the Kd is the free concentration of one partner at which half of the binding sites on the other are occupied at equilibrium, for simple one-to-one binding.

Amino acid sequences for entries named in this document (tags omitted). A change or cut given only in a name is not applied to a line headed by its entry.
UniProt P0ACJ8: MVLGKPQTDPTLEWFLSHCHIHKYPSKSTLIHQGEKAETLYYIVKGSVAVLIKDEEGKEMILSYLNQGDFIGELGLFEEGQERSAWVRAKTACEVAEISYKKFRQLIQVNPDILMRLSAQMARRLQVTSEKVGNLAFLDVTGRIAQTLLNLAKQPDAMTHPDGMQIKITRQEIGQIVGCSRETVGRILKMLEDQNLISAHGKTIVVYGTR

One sequence from publication PMC11559003 can be followed below.

The target in data set [1] is CRP (cAMP receptor protein) (Escherichia coli) (UniProt P0ACJ8). Briefly: EMSA. The conditions noted are these: 200 uM cAMP; EMSA: 10 nM probe, 1x Beyotime EMSA/Gel-Shift Binding Buffer, 25 C 30 min, 6% PAGE at 4 C in 0.5x TBE + 200 uM cAMP; recombinant protein; residues 1-210; protein details: His-tag (pProEX); label: 5' biotin; probe letters rebuilt from the primers and the genome.

For data set [2] the target is unchanged. Nature of the data set: BLI. The conditions noted are these: BLI: 10 mM HEPES, 2 mM MgCl2, 0.1 mM EDTA, 200 mM KCl, pH 8.0, running buffer + 10 ug/mL BSA, 0.02% Tween-20, temperature not stated, recombinant protein, residues 1-210, protein details: His-tag (pProEX), label: 5' biotin, probe letters rebuilt from the primers and the genome.

For part of these data: For at least one entry, the source does not settle the construct or the ends of the probe.

On to “AGCCAGTGGCGATAAGTTCCGGCGCTGGTGGAAAAAGGCCAGCAGAATGCGCGTCTTAATGGCTTACAGAATGTGACGTTTTATCACGAAAATCTTGAAGAAGATGTCACAAAGCAGCCGTGGGCGAAAAACGGCTTCGATAAAGTGTTGCTGGACCCGGCGCGAGCAGGTGCCGCAGGTGTTATGCAGCAAATTATAAAACTGGAACCTATTCGTATAGTTTATGTATCCTGTAACCCTGCAACGCTGGCTCGGGATAGCGAAGCGTTATTAAAAGCAGGATATACCATTGCGCGACTGGCGATGCTGGATATGTCTTATCGCCACTGGCT (double strand) [relA promoter probe]”, for which the binding result in data set [1] is “binds”. Also, the Kd in data set [2] (cAMP + (p)ppGpp) amounted to 110 µM; in data set [2] (cAMP, no (p)ppGpp), 13 µM.
